Assay results taken from publication PMC3820547.
These are yes or no findings as the source states them, for the method shown. In cells and extracts the contact can be indirect. Binding calls can cover weak binding; strength is not graded here.

Target: histidine-tagged Pab0431 (Pyrococcus abyssi)
Assay: pull-down; 5 ug histidine-tagged Pab0431 on Co2+ magnetic beads incubated with 16.5 mg P. abyssi cell extract 2 h at 4°C; PCNA revealed by anti-PCNA blot; only the target purified

B1: PCNA, endogenous in the P. abyssi extract (protein, UniProt Q9UYX8 1-249)
chain: MPFEIVFEGAKEFAQLIETASRLIDEAAFKVTEEGISMRAMDPSRVVLIDLNLPASIFSKYEVDGEETIGVNMDHLKKVLKRGKAKETLILRKGEENFLEISLQGTATRTFKLPLIDVEEIEVDLPELPFTAKVVILGDVIKEAVKDASLVSDSMKFIAKENEFTMRAEGETQEVEVKLTLEDEGLLDIEVQEETKSAYGISYLSDMVKGLGKADEVTIKFGNEMPMQMEYYIRDEGRLIFLLAPRVEE
binding: binds
